The whole screen tested about 140,000 compounds, of which about 4,300 (3.1%) were called active. Inconclusive results, whose numbers are uncertain, are shown with a selection of clear calls.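 Rule for the calls: active = readout at or below -70, meaning at least 70% loss of cells showing the perinucleolar compartment, a nuclear body marking cancer cells; inconclusive = readout between -30 and a set limit; inactive = the rest.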
Experiment: High Content Assay for Compounds that inhibit the Assembly of the Perinucleolar Compartment;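 note: plate controls were DMSO wells for no effect and camptothecin positive control wells for full effect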
Conditions: PC3M PTB-GFP, PNC prevalence imaging, 16 h; at 10 µM; hits give low values
Summary of the method: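 PC3M cells stably expressing PTB-GFP, 750–1000 cells/well, treated 16 h at 37 °C with compound (23 nl of library stock), in duplicate. After paraformaldehyde fixation and Hoechst stain, imaged at 20x; PNC prevalence scored by image analysis.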

| Structure (SMILES) | activity change (PNC), negative = inhibition |
| --- | --- |
| CCC(C(=O)N1CCc2cc(OC)c(OC)cc2C1)c1ccccc1 (stereo not given) | inconclusive: -30.6% |
| COc1cc(NC(=O)CCc2ccccc2)c(C(=O)O)cc1OC | inconclusive: -52% |
| O=C(NC1C2CC3CC(C2)CC1C3)C1CC1 (stereo not given) | inconclusive: -35.4% |
| Cc1ccc(C(=O)N2CCN(c3ccc([N+](=O)[O-])c(NCc4cccnc4)c3)CC2)cc1 | inactive: -22.5% |
| COc1cc(C(c2sc3nc(C)nn3c2O)N2CCc3ccccc3C2)cc(OC)c1OC (stereo not given) | inconclusive: -50.4% |
| Cn1c(SCC(=O)N2CCOCC2)nnc1-c1ccccc1 | inconclusive: -61.4% |
| CCC1(C)C2(C#N)C(N)=NC(OC)(OC)C12C#N (stereo not given) | inconclusive: -35.8% |
| CC1(NC(=S)NCCO)CCS(=O)(=O)C1 (stereo not given) | inconclusive: -78.4% |
| Cn1c(N2CCCCC2)nc2c1c(=O)n(Cc1cccc(Br)c1)c(=O)n2C | inconclusive: -53.3% |
| CC(C)(C)C1CCc2c(sc(N)c2C(N)=O)C1 (stereo not given) | inconclusive: -48.7% |
| Cc1ccc(C2CC(c3ccccc3OC(F)F)Nc3ncnn32)cc1 (stereo not given) | inconclusive: -40.9% |
| COC(=O)C(C)n1cnc2c(nnn2-c2ccc(OC)cc2)c1=O (stereo not given) | inconclusive: -37.3% |
| CCOC(=O)CCC(=O)Nc1cccc([N+](=O)[O-])c1 | inactive: 21.4% |
| CC1CCCCC1n1c(=S)[nH]c2ccccc2c1=O (stereo not given) | inconclusive: -57.1% |
| O=C(NNc1ccc([N+](=O)[O-])cc1)C1CC2CCCC(C1)C2=O (stereo not given) | active: -109% |
| Cc1cc(C(=O)Cn2nc(C(=O)O)c3ccccc3c2=O)c(C)n1-c1ccccc1 | inconclusive: -55.9% |
| CN(C)CCCN(CCCNC(=O)/C=N/O)Cc1ccccc1 | inconclusive: -55.4% |
| O=C(/C(=C(\[O-])c1ccccc1)[n+]1ccc2ccccc2c1)c1ccc([N+](=O)[O-])cc1 | inconclusive: -30.7% |
| COc1ccc(-c2cc(-c3ccccc3)nc(-c3ccc4c(c3)NC(=O)CO4)c2)cc1 | inconclusive: -33.7% |
| c1ccc(-c2nc(NC3CC3)nc(-n3ccnc3)n2)cc1 | inconclusive: -36.9% |
| O=C(OCc1nc2ccccc2s1)[C@@H]1CCCN1S(=O)(=O)c1ccccc1F | inconclusive: -60.8% |
| CCCc1cc(=O)n2[nH]c(-c3ccccc3)cc2n1 | active: -100% |
| CNC(=S)N/N=C(\C)c1ccc(N2CCOCC2)cc1 | active: -112% |
| COc1ccc(NS(=O)(=O)c2ccc(NC(=O)CCNS(=O)(=O)c3ccc(C)cc3)cc2)cc1 | inconclusive: -31.4% |
| N#C/C(=C\c1cccs1)C(=O)NCc1ccccc1 | inconclusive: -67.3% |

A different layout for some results above:
Structure (SMILES),"activity change (PNC), negative = inhibition"
Cn1c(N2CCCCC2)nc2c1c(=O)n(Cc1cccc(Br)c1)c(=O)n2C,inconclusive: -53.3%
CC(C)(C)C1CCc2c(sc(N)c2C(N)=O)C1 (stereo not given),inconclusive: -48.7%

— PubChem BioAssay AID2417 (National Center for Advancing Translational Sciences (NCATS), 2010)
